109 sequences from the supplement of paper PMC3334620 can be followed below.

In all, about 33,000 sequences were measured (“E-score (-0.5 to 0.5)”: median about -0.016, highest 2% from about 0.3 on). The list shows a part of the results.

The target of the test is T1, Yer184c (UniProt P39961).
T1 sequence: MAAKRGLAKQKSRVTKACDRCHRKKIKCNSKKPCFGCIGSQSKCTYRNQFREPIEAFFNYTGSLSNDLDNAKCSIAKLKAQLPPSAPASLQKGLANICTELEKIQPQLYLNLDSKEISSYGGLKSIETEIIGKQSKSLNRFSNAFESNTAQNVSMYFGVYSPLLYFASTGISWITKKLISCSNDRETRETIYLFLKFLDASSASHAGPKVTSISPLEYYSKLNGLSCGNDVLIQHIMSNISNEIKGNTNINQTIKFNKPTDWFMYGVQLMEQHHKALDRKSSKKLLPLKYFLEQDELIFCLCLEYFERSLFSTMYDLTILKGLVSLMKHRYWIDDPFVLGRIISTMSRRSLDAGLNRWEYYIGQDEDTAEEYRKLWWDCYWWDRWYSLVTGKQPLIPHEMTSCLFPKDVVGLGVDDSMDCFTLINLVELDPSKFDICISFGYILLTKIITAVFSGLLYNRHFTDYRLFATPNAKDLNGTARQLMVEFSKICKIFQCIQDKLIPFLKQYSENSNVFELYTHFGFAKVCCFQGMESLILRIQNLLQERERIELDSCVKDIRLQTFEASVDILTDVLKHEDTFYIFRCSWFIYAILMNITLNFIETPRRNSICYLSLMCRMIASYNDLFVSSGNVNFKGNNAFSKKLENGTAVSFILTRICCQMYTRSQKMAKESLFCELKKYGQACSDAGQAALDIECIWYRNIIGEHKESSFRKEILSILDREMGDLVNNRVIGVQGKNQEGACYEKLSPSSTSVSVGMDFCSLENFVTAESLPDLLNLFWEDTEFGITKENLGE
The test is described as follows: PBM E-score (8-mer binding enrichment) (E-score (-0.5 to 0.5)); higher = stronger / more preferred TF binding. The following applies: protein concentration: 100 nM; construct: GST-full length. In a few lines: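 Full-length yeast transcription factors or their DNA-binding domains, GST-tagged and expressed with PURExpress, were applied at about 100-200 nM to universal all-10-mer Agilent arrays. These arrays had been made double-stranded by primer extension on fresh or once-stripped slides. Detection used fluorescent anti-GST, normalisation used masliner, and E-scores for ungapped eight-base words pooled with reverse complements came from the Universal PBM Analysis Suite.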
Consider GTAGGCAA, for which the “PBM E-score” value was -0.151. As to AGAGGCTA, the “PBM E-score” value was -0.234.

Turning to ACGTCGTG, the “PBM E-score” value is -0.08. Take CCCCACAG: the “PBM E-score” value was -0.395. Consider GATCTACC, for which the “PBM E-score” value was -0.0369. In the case of CCAGCTTC, the “PBM E-score” value was -0.0253. To CGCACTAC belongs 0.0422; to CCCCTACG, -0.32. In the case of CACGGTAG, the “PBM E-score” value is -0.083. For CAAGGATA, the “PBM E-score” value was -0.0105. In the case of ACCACTTG, the “PBM E-score” value is -0.0241. Take GTCGTTAA: the “PBM E-score” value is 0.183. For AGCCCCTC, the “PBM E-score” value was -0.186. With CCCAAAAC, the “PBM E-score” value worked out at 0.121. To CATTATGA belongs -0.112.

CACTAGTG: the “PBM E-score” value stood at 0.00908. AGACGGGG: the “PBM E-score” value was -0.159. Take CTGAATAA: the “PBM E-score” value came to 0.134.

For TAATTATA, the “PBM E-score” value was found to be 0.322. Turning to GGCGAAGA, the “PBM E-score” value is -0.0125. Turning to GAGTATGA, the “PBM E-score” value is 0.0948. For ACTATTGA, the “PBM E-score” value turned out to be 0.142. Consider TCCGATAA, for which the “PBM E-score” value was found to be 0.22. As to AGTGGATA, the “PBM E-score” value turned out to be 0.00091. The same measure for GACGGATA: 0.125; for ATCGCTTA: -0.159; for CGGGGGAG: -0.281. On to TGCACTAA, for which the “PBM E-score” value was 0.18.

In the case of AGATTCGG, the “PBM E-score” value is 0.294. With AGCACATC, the “PBM E-score” value is 0.0173. On to ACAAGACC, for which the “PBM E-score” value was -0.0478. Regarding AAGTAGAA, the “PBM E-score” value was 0.0158. ACCAGGAG: the “PBM E-score” value was -0.1. For the sequence CGAAATAG, the “PBM E-score” value worked out at 0.214. To CTCGAAGC belongs 0.00029; to TCTGCGCA, -0.0569. Take CTCATAAG: the “PBM E-score” value was 0.0608.

For the sequence AGAGGTAC, the “PBM E-score” value is -0.254. Regarding GACGAAGC, the “PBM E-score” value came to 0.0181. The same measure for GGAACGAC: -0.0886; for CATCCCCC: -0.356. Regarding CGTCCGAC, the “PBM E-score” value is -0.0398. Consider ATATAGTA, for which the “PBM E-score” value came out at 0.0216. To CTAATAGA belongs 0.196. Regarding GCCGCGAA, the “PBM E-score” value was -0.0654.

Take ACATGAGT: the “PBM E-score” value is -0.154. To ACTTGAGC belongs -0.236; to GATTTTAC, 0.123; to AATTCCTC, 0.0149. Regarding CCTATATC, the “PBM E-score” value was -0.0566. Regarding GTCGTGGA, the “PBM E-score” value is -0.0984. In the case of ACCAAGGA, the “PBM E-score” value was -0.0323. In the case of ATCGGGGC, the “PBM E-score” value was -0.157.

Turning to ACTCTCCC, the “PBM E-score” value is 0.0647. The same measure for AATAGACT: -0.0293; for ATAACCCC: -0.243; for CAGTACTA: 0.0892. On to CCGTGTAC, for which the “PBM E-score” value was determined as 0.0859. Regarding CTTCCATC, the “PBM E-score” value is 0.0108. Consider ATCAGTTG, for which the “PBM E-score” value is -0.102.

Consider GATCTTGC, for which the “PBM E-score” value stood at 0.0396. In the case of CGACCAGA, the “PBM E-score” value was -0.106. Take ATCGCACG: the “PBM E-score” value is -0.143.

For GAGCGATC, the “PBM E-score” value was -0.121. For the sequence TCGGCAAA, the “PBM E-score” value was found to be 0.239. As to AAGCGCGA, the “PBM E-score” value is -0.0153. The same measure for GACATAGC: 0.078.

In the case of AATCCACA, the “PBM E-score” value is -0.0138. To CCGTCAAC belongs 0.0224; to AGGTTGGG, -0.184. CACCCCAG: the “PBM E-score” value is -0.251. Regarding TCACCCCA, the “PBM E-score” value is -0.0252. As for AGTATGAC, the “PBM E-score” value is 0.0364.

In the case of AATATCCA, the “PBM E-score” value stood at 0.17. In the case of CCGTGATA, the “PBM E-score” value worked out at 0.147. In the case of AAAATGTG, the “PBM E-score” value is -0.0563. In the case of GAGTGGAC, the “PBM E-score” value was -0.109. The same measure for GCGATGAC: -0.147; for ATATAGAT: 0.236. With GTCGTGTA, the “PBM E-score” value worked out at 0.0195. In the case of AACCCACG, the “PBM E-score” value is -0.244. Take TAGCGTCA: the “PBM E-score” value is -0.223. As for CAGCCCCG, the “PBM E-score” value is -0.133. Consider CCATAGCC, for which the “PBM E-score” value is -0.0766. On to CCGGCCGA, for which the “PBM E-score” value worked out at 0.431. To CACTCTTC belongs -0.0607; to ATCGGCAT, 0.267. Regarding GTTAATGA, the “PBM E-score” value amounted to 0.126. AAGACATC: the “PBM E-score” value is -0.263. As to CGACAGCC, the “PBM E-score” value is -0.1. As for CACGCAGG, the “PBM E-score” value is -0.0695.

For ATAGCTGA, the “PBM E-score” value is -0.0194. For GATTTCCA, the “PBM E-score” value was determined as 0.0816. Regarding ACCCTCAC, the “PBM E-score” value was -0.152. On to AAACCAGG, for which the “PBM E-score” value is -0.178.

With CGCACCTC, the “PBM E-score” value was -0.103. In the case of GGAAGATA, the “PBM E-score” value came to 0.0905. The same measure for AAGCTAGA: -0.0135; for CAGTTGCA: -0.0676. In the case of CATGTTAC, the “PBM E-score” value is -0.0321.

Turning to GTAGCAAA, the “PBM E-score” value was 0.0314. For the sequence CGTAAAAC, the “PBM E-score” value is 0.0466. GTAGCCTA: the “PBM E-score” value was -0.284. For CGACATTA, the “PBM E-score” value turned out to be 0.221. As to GTAGCGAC, the “PBM E-score” value is -0.241.

As to GCATTGAA, the “PBM E-score” value is 0.203.

As for AGCCAGAC, the “PBM E-score” value is -0.0475.

Take GGCCTAGA: the “PBM E-score” value was -0.258. AGGTAGTC: the “PBM E-score” value was -0.205.
